PubChem BioAssay AID504774, Drosophila RNAi Screening Center | 2011
In all, the deposit lists about 23,000 reagents; shown is a random part of those with a known target gene and a result. 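Values are quantile-normalised luminescence on an arbitrary scale; higher means more cells surviving MMS.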 Not all columns of the deposit are shown.

- Test: 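Fly genes whose loss alters survival after alkylation damage to DNA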 (primary screen)
- Cells: Drosophila Kc167 cells
- Reagents: long dsRNA against Drosophila genes, about 0.25 µg dsRNA per well
- Time to read-out: about 6 days: 3 days knock-down, then 3 days with or without MMS
- Conditions: methyl methanesulphonate 0.004% (w/v) for 3 days after knock-down
- Measurement: 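ATP-dependent luminescence as a measure of live cells in MMS-exposed wells, quantile normalised within each plate, with replicate values also given as a mean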
- Direction: mean viability with MMS: higher = more surviving cells after MMS

For CG14551 (GeneID 43171) [DRSC14894], the entry reads mean viability with MMS 3.53e6.
For Dyro (GeneID 39271) [DRSC10598] the deposit lists mean viability with MMS 3.27e6.
Knock-down of Csas (GeneID 317923) [DRSC22390] came out at: mean viability with MMS 3.37e6.
With knock-down of alphaTub85E (GeneID 41183) [DRSC16899] the results were mean viability with MMS 3.20e6.
For CG13148 (GeneID 36398) [DRSC06275], the values are mean viability with MMS 3.58e6.
Depletion of Mccc2 (GeneID 59261) [DRSC04987] resulted in: mean viability with MMS 3.28e6.
After knock-down of Naa60 (GeneID 39142) [DRSC10301], the record shows mean viability with MMS 3.74e6.
Knock-down of CG5292 (GeneID 42079) [DRSC15763] gave: mean viability with MMS 3.57e6.
Against Ssu72 (GeneID 32973) [DRSC19572], the values are mean viability with MMS 3.49e6.
CG7860 (GeneID 32488) [DRSC20060] showed mean viability with MMS 3.56e6.
Depletion of mahe (GeneID 31707) [DRSC17755] came out at: mean viability with MMS 3.52e6.
Against r-l (GeneID 42493) [DRSC17042], the values are mean viability with MMS 3.67e6.
Silencing of r-l (GeneID 42493) [DRSC22784] resulted in: mean viability with MMS 3.31e6.
For CG12994 (GeneID 50350) [DRSC19192], the values are mean viability with MMS 3.64e6.
For CG12994 (GeneID 50350) [DRSC19514], the entry reads mean viability with MMS 3.18e6.
Against CG10337 (GeneID 35247) [DRSC02038], the values are mean viability with MMS 3.42e6.
lov (GeneID 38007) [DRSC04279] showed mean viability with MMS 3.52e6.
Depletion of lov (GeneID 38007) [DRSC04665] resulted in: mean viability with MMS 3.69e6.
CG6983 (GeneID 38964) [DRSC10757] showed mean viability with MMS 3.77e6.
Against Psc (GeneID 36431) [DRSC07518], the values are mean viability with MMS 3.57e6.
U4-U6-60K (GeneID 39955) [DRSC10624] gave mean viability with MMS 3.47e6.
After knock-down of Fkbp12 (GeneID 37214) [DRSC07425], the record shows mean viability with MMS 3.64e6.
With knock-down of mRRF2 (GeneID 42670) [DRSC16143], the screen gave mean viability with MMS 3.42e6.
CAH3 (GeneID 31804) [DRSC17776] gave mean viability with MMS 3.48e6.
Knock-down of CG44433 (GeneID 37150) [DRSC06517] came out at: mean viability with MMS 3.57e6.
With knock-down of CG44433 (GeneID 37150) [DRSC06518] the results were mean viability with MMS 3.42e6.
CG3065 (GeneID 37818) [DRSC04333] gave mean viability with MMS 3.32e6.
LysS (GeneID 38130) [DRSC08677] showed mean viability with MMS 3.63e6.
For CG30284 (GeneID 246527) [DRSC22150], the values are mean viability with MMS 3.27e6.
Against CG2617 (GeneID 35331) [DRSC02712] the deposit lists mean viability with MMS 3.45e6.
Silencing of ChAT (GeneID 42249) [DRSC13314] gave: mean viability with MMS 3.32e6.
ChAT (GeneID 42249) [DRSC16609] scored mean viability with MMS 3.35e6.
Depletion of ChAT (GeneID 42249) [DRSC22755] gave: mean viability with MMS 3.48e6.
For bgm (GeneID 44117) [DRSC03495], the values are mean viability with MMS 2.81e6.
emei (GeneID 39250) [DRSC10897] scored mean viability with MMS 3.76e6.
Knock-down of emei (GeneID 39250) [DRSC22684] came out at: mean viability with MMS 3.10e6.

Quoted from the entries so far, 5 entries:
CG12994 (GeneID 50350) [DRSC19514] — mean viability with MMS = 3.18e6
CG10337 (GeneID 35247) [DRSC02038] — mean viability with MMS = 3.42e6
lov (GeneID 38007) [DRSC04279] — mean viability with MMS = 3.52e6
lov (GeneID 38007) [DRSC04665] — mean viability with MMS = 3.69e6
CG6983 (GeneID 38964) [DRSC10757] — mean viability with MMS = 3.77e6
